The target in test [1] is amino-terminal domain of Latrodectus hesperus major ampullate spidroin 1, wildtype (Latrodectus hesperus) (UniProt A6YIY1). Description: SEC-MALS; 35.6 μM and 142.5 μM wtNRN1 at pH 7.2; monomer to dimer; both purified.
Test [2] has the same target. Kind of test: SEC-MALS; Superdex 200 10/300 GL, 20 mM sodium phosphate pH 7.2 or 6.0 with 300 mM NaCl, 71.2 μM protein injected; monomer to dimer; both purified. On the technique in general: Size exclusion chromatography separates by hydrodynamic size, large species first.

No constants are given. Whether binding was seen depends on the method and setting. Some entries that bind do so weakly or less than the wild type.

Binding data for one molecule are collected here from paper PMC5041093, “Acidic Residues Control the Dimerization of the N-terminal Domain of Black Widow Spiders’ Major Ampullate Spidroin 1” (Scientific Reports, 2016).

B1: amino-terminal domain of Latrodectus hesperus major ampullate spidroin 1, wildtype (domain or fragment)
chain: QANTPWSSKANADAFINSFISAASNTGSFSQDQMEDMSLIGNTLMAAMDNMGGRITPSKLQALDMAFASSVAEIAASEGGDLGVTTNAIADALTSAFYQTTGVVNSRFISEIRSLIGMFAQASANDVYASAGS
notes: non-repetitive amino-terminal domain (NRN1) of major ampullate spidroin 1 (MaSp1), Latrodectus hesperus; also called wtNRN1_(L.h.); NRN1_(L.h.); source: E. coli BL21 (DE3), purified (nickel-NTA, SEC)
Regarding B1, the binding entry in test [1] is on record as “binds”; in test [2], “no binding (condition: with 300 mM NaCl)”.
